Results on one compound are retold here after patent US20250011484A1, “METHODS FOR PREPARING METALLOCENE COMPOUNDS” (Chevron Phillips Chemical Company LP, priority 2023, published 2025).

Each structure is given as a SMILES string.

This data set can be described thus: Metallocene-catalyzed oligomerization of 1-decene. The conditions noted are these: 110° C. Here is the method: Metallocene-catalyzed oligomerizations were performed using MET-A and MET-D as follows. Generally, 1-decene was oligomerized to an oligomer product of dimers, trimers, and tetramers in the presence of MET-A or MET-D, as noted in Table II below. For Examples 8-9, a 1-gallon batch reactor was charged with 675 g of 1-decene. A syringe was charged with CTSO (0.750 g), TIBA (1.3 mL of a 1.0 M hexane solution), and metallocene (5 mg). The chemically treated solid oxide (CTSO) was a fluorided silica-coated alumina (60:40 alumina:silica by weight) containing 4 wt. % F and having a d50 average particle size of 35 microns, a BET surface area of 450 m^2/g, and a pore volume of 1.1 mL/g. The catalyst mixture was shaken to mix and was then charged to the reactor under a nitrogen purge. The reactor was heated to 110° C. while stirring at 600-900 rpm. Once the reactor temperature reached setpoint, 633 mg of hydrogen was charged to the reactor. After 1 hour, the reactor was cooled to 35° C. A solution of 10% HCl in isopropyl alcohol (10 mL total charge) was added and the reactor contents were removed.
The reaction mixture was then filtered and analyzed by gas chromatography to determine the yield of oligomer product formed in the reaction mixture, and to determine the relative amount of certain oligomers within the oligomer product (e.g., the trimer:tetramer weight ratio).
Gas chromatographic (GC) analyses were performed using a split injection method on a Bruker 430-GC gas chromatograph with a flame ionization detector (FID). Initial oven temperature was 70° C. for 2 minutes and increased 5° C./min to 290° C. and held for 7 minutes. The column was an all-purpose capillary column (Agilent J&W VF-5 ms, 30 m×0.25 mm×0.25 μm). Data analysis was performed using CompassCDS software.
The distribution of olefin end groups was determined using ^1H NMR on a Bruker 300 MHz NMR. Spectra were recorded in CDCl3 and are reported relative to SiMe4 as determined by reference to the residual ^1H solvent peak. Integration of the following chemical shift ranges were used to determine the relative amounts of olefin end group: Vinylidene: 4.55-4.75 ppm, Trisubstituted: 4.95-5.15 ppm, Internal: 5.20-5.45 ppm.

[1] abbreviates: olefin end groups of dimer by 1H NMR.

Under setting [1], `Fc1c(F)c(F)c(C[c-]2ccc3ccccc32)c(F)c1F.[Cl-].[Cl-].[Zr+4].c1cc[cH-]c1` (stereo not drawn) [MET-A] came in with a Dimer % internal of 6.3%, a Dimer % trisubstituted of 20.7% and a Dimer % vinylidene of 73.0%. In addition, for the setting “oligomer product by GC, 1 hour”, the “Dimer (mol %) Total” value was found to be 62.3 mol %, the Tetramer was 11.8 mol % and the Trimer is 25.8 mol %.
